PubChem BioAssay AID1224826 | NIAID, 2016

Assay: 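Regulators of Tlr4 signalling leading to Tnf-alpha expression in macrophages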 (primary screen)
Cell system: RAW264.7 G9 macrophages from mouse bearing reporters for p65 (GFP) and the Tnf promoter (mCherry)
Reagent: siRNA pool against mouse genes, 100 nM
Duration: 16 h of LPS stimulation, after 2 days of siRNA transfection
Treatment: bacterial lipopolysaccharide (Salmonella minnesota R595), 10 ng/ml
Measurement: 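Imaged Tnf reporter mCherry in nuclei, minus background, normalised per plate to the median and expressed as robust z-scores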
Direction: Tnf reporter robust z-score: higher = stronger Tnf promoter reporter signal after LPS
Rule for the call: 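Called active when robust z-score is at most -1.3, matching the median of the Tlr4 knock-down control, or over 3; control wells and wells with under 50 cells never active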
Calls: active = Tnf reporter clearly lowered or raised; inactive = no clear change in Tnf reporter
This is a random part of about 17,000 reagents. About 1,110 of all reagents (6.6%) count as active. 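Active means lowered or raised reporter signal; replicate intensities are raw and not normalised per plate.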 Further read-outs or replicates are left out here.

How did the screen score Nefm?
Tnf reporter robust z-score: -1.44; fewer than 50 cells in well: enough cells in well; outcome: active

What is on record for Or52r1c?
Tnf reporter robust z-score: 1.26; fewer than 50 cells in well: enough cells in well; outcome: inactive

For Dnm1l, what was measured?
Tnf reporter robust z-score: -0.48; fewer than 50 cells in well: enough cells in well; outcome: inactive

With Has2, how do the results read?
Tnf reporter robust z-score: -0.33; fewer than 50 cells in well: enough cells in well; outcome: inactive

What did the screen give for Fgf18?
fewer than 50 cells in well: fewer than 50 cells per well; well left out of calls; outcome: inactive

With Smarca4, how do the results read?
Tnf reporter robust z-score: 0.27; fewer than 50 cells in well: enough cells in well; outcome: inactive

Which result is listed for 4930412C18Rik?
Tnf reporter robust z-score: 0.03; fewer than 50 cells in well: enough cells in well; outcome: inactive

With Celf5, how do the results read?
fewer than 50 cells in well: fewer than 50 cells per well; well left out of calls; outcome: inactive

For Hmga2, how do the results read?
Tnf reporter robust z-score: -1.08; fewer than 50 cells in well: enough cells in well; outcome: inactive

How did the screen score Mocs1?
Tnf reporter robust z-score: -0.52; fewer than 50 cells in well: enough cells in well; outcome: inactive

What is on record for Chst10?
Tnf reporter robust z-score: 0.62; fewer than 50 cells in well: enough cells in well; outcome: inactive

How did the screen score Pfkfb3?
Tnf reporter robust z-score: 2.64; fewer than 50 cells in well: enough cells in well; outcome: inactive

For Gse1, what does the deposit list?
Tnf reporter robust z-score: -0.34; fewer than 50 cells in well: enough cells in well; outcome: inactive

For Acvrl1, how do the results read?
Tnf reporter robust z-score: -1.64; fewer than 50 cells in well: enough cells in well; outcome: active

With Orai1, what does the deposit list?
Tnf reporter robust z-score: -0.93; fewer than 50 cells in well: enough cells in well; outcome: inactive

With Rtbdn, what was measured?
Tnf reporter robust z-score: 0.98; fewer than 50 cells in well: enough cells in well; outcome: inactive

For Tgoln2, what does the deposit list?
Tnf reporter robust z-score: 0.6; fewer than 50 cells in well: enough cells in well; outcome: inactive

With Eps8, what was measured?
Tnf reporter robust z-score: 0.55; fewer than 50 cells in well: enough cells in well; outcome: inactive

What did the screen give for Mrpl45?
Tnf reporter robust z-score: -0.51; fewer than 50 cells in well: enough cells in well; outcome: inactive

What is on record for Ccnq?
Tnf reporter robust z-score: -0.49; fewer than 50 cells in well: enough cells in well; outcome: inactive

Which result is listed for Slc26a6?
Tnf reporter robust z-score: -0.19; fewer than 50 cells in well: enough cells in well; outcome: inactive

For Rnf40, what does the deposit list?
fewer than 50 cells in well: fewer than 50 cells per well; well left out of calls; outcome: inactive

How did the screen score Edc3?
Tnf reporter robust z-score: 1.48; fewer than 50 cells in well: enough cells in well; outcome: inactive

Which result is listed for Aox4?
Tnf reporter robust z-score: -1.05; fewer than 50 cells in well: enough cells in well; outcome: inactive

What is on record for Rhox3a?
fewer than 50 cells in well: fewer than 50 cells per well; well left out of calls; outcome: inactive

For Vmn1r16, what was measured?
Tnf reporter robust z-score: 1.53; fewer than 50 cells in well: enough cells in well; outcome: inactive

Which result is listed for Ndufs5-ps?
Tnf reporter robust z-score: 0.54; fewer than 50 cells in well: enough cells in well; outcome: inactive

4 consecutive records from above, quoted:
Rnf40 — fewer than 50 cells in well = fewer than 50 cells per well; well left out of calls; outcome = inactive
Edc3 — Tnf reporter robust z-score = 1.48; fewer than 50 cells in well = enough cells in well; outcome = inactive
Aox4 — Tnf reporter robust z-score = -1.05; fewer than 50 cells in well = enough cells in well; outcome = inactive
Rhox3a — fewer than 50 cells in well = fewer than 50 cells per well; well left out of calls; outcome = inactive
